# Measured values published in PubChem BioAssay AID1508600 (Functional Genomics Laboratory (NCATS/FGL), 2020).
# Among all 53,000 sequences or so, about 3,700 (7%) were called active.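 How the source made its calls: active means gene knockdowns whose robust z-score for IL-1 alpha signal is at least 2 or at most -2, so actives lie on both sides; inactive means the rest.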 The list shows a part of the results.
# Assay: Components of the Cytosolic LPS Sensing Pathway: Gene Identification via Genome-wide siRNA Screen;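 further: robust z of the log signal after scaling to non-targeting control siRNA wells of the plate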
# Details: RAW264.7 macrophages, IL-1a HTRF, actives lie on both sides, screened at 100 nM (by protocol), cells primed 5 h with Pam3CSK4 first
# Procedure, shortened: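 Supernatant IL-1a by HTRF from RAW264.7 cells primed with Pam3CSK4 (5 hours) and transfected with LipidA (24 hour) after 48h siRNA knockdown at 100 nM; cell viability checked with CellTiter-Glo.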
row,Sequence,z-score
1,GGAAUUGGUUCAGAAAUAUTT against Rtn4,active: 3.09
2,GGUUUACACGGUGGUAGAUTT against Ap2s1,inactive: 1.89
3,GGCUGCUGAUGAAAUGACUTT against Guca2b,inactive: 0.185
4,GGAUCUGUACACAGUUAGUTT against Olfr1123,inactive: -1.21
5,GGUAUUUCCGGAUCUUCAUTT against Smim7,inactive: 0.0136
6,GCCGAGUGAUAACAGUAGATT against Ndufa10,inactive: 1.35
7,GGAUUAUCACUGCCUCUUATT against Olfr1446,inactive: 1.28
8,GGAGUUCAAUCCAACAAAATT against Atxn2l,inactive: -1.4
9,CCUGACGAUUGAGUAUCAUTT against Tubgcp4,inactive: -0.267
10,GGUCAGUGACAUUAUCAAUTT against Vmn1r237,inactive: 1.84
11,GGAGAACACCAAAAAGGGCTT against Uncx,inactive: -1.26
12,CCCAAGUGAAAGUAAUGUCTT against Tardbp,inactive: -2
13,GUCUUAUACACGUGUGGACTT against Cklf,inactive: -0.198
14,GGGUGUACAGAGGAUCCGATT against Atp2a3,inactive: 0.187
15,GCUUAAAGAACUCUAUUCATT against Oaz3,inactive: 1.02
16,GGACAUAGUGAUGCUUCAGTT against Ubr2,inactive: -1.18
17,GCUGUGAAGACGGACAAUATT against Pelo,inactive: -1.58
18,GGCAGAUGUCUGAUUUGGUTT against Zfp553,inactive: -0.507
19,GGUGGUCAAGAUCUUGGUGTT against Mcoln1,inactive: -0.982
20,CGUUUUCCACAAAGCAAAATT against Olfr1465,inactive: 0.543
21,GGAGAAUAACAAGAUAGUCTT against Pcdhgb8,inactive: 0.0624
22,GGAUGAACUAUACCAUGGCTT against Tmem132c,inactive: 1.07
23,GGUGCUCAUCGACUGGAUCTT against Parva,inactive: 0.102

row,Sequence,z-score
1,GCUUGCUCCGGUAACAGCATT against Gata6,inactive: -0.896
2,GCAUCGCCAUCUAUAACUCTT against Slc25a48,inactive: 0.113
3,GGCCUUUGAGAAGAACAUUTT against Copz1,active: -2.16
4,GGUUGUGUUUACCAUGAAGTT against Rps6ka6,inactive: 0.684
5,GGAAAGAUGCCGGAAAAUCTT against Ppp1r14a,inactive: -0.167
6,GCUCCGAAUUUUGCUGAUCTT against Galc,inactive: 1.61
7,GCCAUAGGCUCAUCUUUACTT against Ankib1,inactive: -1.61
8,GGAGCUGGAAGAGGUGUUUTT against Fam117a,inactive: 0.596
9,CGCAGACAGAGACAACCUGTT against Casp6,inactive: -0.73
10,GCACCAAGGUCCUACUUGATT against Lypd10,inactive: 0.19
11,CGCAUGUGAUUCCUUAUGATT against Sqor,inactive: -0.735
12,CGAUUGUCGGGUUUUGUUUTT against Nutf2,active: -2.53
13,CCUAGAGAGUUAGAAAUAATT against Clpx,inactive: 1.57
14,GGCCGAAGCAUCUUCAAGATT against Wdr24,inactive: 1.88
15,GCUUAGUGAGGAGAUACAATT against Champ1,inactive: 0.837
16,GGGUAGUUAUACAAACUAATT against Snapc5,inactive: 1.53
17,CCUGUGAGUACCAGCCAACTT against Vstm2l,inactive: -0.636
18,GGAUUUAGGUAUGUUUCACTT against Ankrd55,inactive: -1
19,GCCAAUGAGCAGACUGUAUTT against Sycp1,inactive: -0.193
20,GGAUUCGGACAAAACUACUTT against Mettl16,inactive: 0.255
21,GGUACAAAGUCCAUUCUUGTT against Nlrp10,inactive: 1.25
22,GGACAGAUGGAAUAGUGAATT against Klra10,inactive: -0.657
23,CCAAGAUCCCGUUAAACAATT against Defb3,inactive: 0.645

# Taken from above:
# z-score, GGAGCUGGAAGAGGUGUUUTT against Fam117a reads inactive: 0.596
# z-score, CGCAGACAGAGACAACCUGTT against Casp6 reads inactive: -0.73
# z-score, GCAUCGCCAUCUAUAACUCTT against Slc25a48 reads inactive: 0.113
# z-score, GGACAGAUGGAAUAGUGAATT against Klra10 reads inactive: -0.657
# z-score, CCAAGAUCCCGUUAAACAATT against Defb3 reads inactive: 0.645

# The list continues:

row,Sequence,z-score
1,GGAAGAGCUGAAACAUUUGTT against E230025N22Rik,inactive: -1.22
2,GGAGUUCCCGCUUACUCUGTT against She,inactive: -0.333
3,CCUGCUAAUGUUUGUAAGUTT against Sowahc,inactive: 1.37
4,CGGGCUGAUUCAACUGGUGTT against Kif1b,active: 3.64
5,GGCAAAGGUGCAAGAUACATT against Nadsyn1,inactive: 0.409
6,GGGUUGGCUGAGGUAAUGGTT against Gcn1,inactive: 0.174
7,GGUGGUGAGCAUCUACUAUTT against Alox5,inactive: 0.565
8,CGCUGGACUGGAAUACUCATT against Zfp1,inactive: -0.692
9,GGAAAUGAACAGUAAACCATT against Golph3l,inactive: 1.19
10,GGUAGACUGUGAAAAUGACTT against Ldlr,inactive: -0.6
11,GGUGAAGUCAUCACUAUUGTT against Trpm2,inactive: 0.883
12,GCGACAAAUCGCGCUAUGATT against Grm3,inactive: -1.3
13,GCAGUGGUUUGAUCUAUUUTT against Cul5,inactive: 0.843
14,GGGAGAGAUGUCAUUGCACTT against Eif4a3,inactive: -1.9
15,GGAGCCAGUCCAAAUUGCATT against Il13ra1,inactive: 0.561
16,CCAAGAUGGGUUCAUCUCUTT against Cabp5,active: 2.39
17,GAGCUGGCAAUCUUUCUCUTT against Olfr1156,inactive: 0.337
18,GGAUUUCCUGUUCUUUCUATT against Prmt5,inactive: 0.168
19,GGUCCCUAUGUUAUUGAUUTT against Spock2,inactive: 1.11
20,GGUUGUGUUCAUGGAGAAGTT against Nfatc2,inactive: -1.23
21,CUGCAAACAGAGAGCAGCGTT against Ikbip,inactive: 0.0294
22,GGUCUCGGGUCUGAUUUAATT against Foxa2,inactive: 1.95
23,GGAGACAGAAAUGAGUUCATT against Slc34a2,inactive: -0.808
